PubChem BioAssay AID504786 | Drosophila RNAi Screening Center | 2011
Aim: 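Fly genes required for HIF-dependent transcription when hypoxia is mimicked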 (primary screen). Cell system: Drosophila S2 cells with a stable HIF luciferase reporter. Knock-down reagent: long dsRNA against Drosophila genes, about 0.2 µg dsRNA per well of a 384-well plate. Time to read-out: three days of knock-down, then 20 h of DFO before reading. Conditions: desferrioxamine (DFO) at 100 µM, an iron chelator that mimics hypoxia, for 20 h. Detection: 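HIF reporter luminescence in cells given 100 µM DFO for 20 h, using the mouse ldh-a hypoxia-response element, scored as per-plate z-scores; higher means greater loss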. Direction: z-score: higher = stronger loss of HIF reporter signal.
The deposit covers about 21,000 reagents; shown is an unselected part of those with a known target gene and a result. 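Primary screen; positive scores mean lost reporter signal, so the sign may be inverted from the usual convention.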 Names joined by + are all predicted targets of the reagent.

gene,DRSC id,"z-score, replicate 1","z-score, replicate 2","z-score, replicate 3","z-score, replicate 4"
dec (GeneID 31691),DRSC18759,-0.2,0.2,,
Orc1 (GeneID 35686),DRSC07496,0.6,0.5,,
Grl58a (GeneID 37509),DRSC04145,-0.2,-0.2,,
HnRNP-K (GeneID 43862),DRSC07585,0.1,0,-0.4,-0.3
PolE4 (GeneID 37560),DRSC04105,-0.2,-0.1,,
TfIIFalpha (GeneID 40790),DRSC12608,-0.1,0.1,,
Chc (GeneID 32537),DRSC20229,-0.5,-0.8,,
Ptr (GeneID 35546),DRSC04852,-0.4,-0.4,,
CG10948 (GeneID 39459),DRSC09806,-0.3,-0.3,,
CG13096 (GeneID 34183),DRSC02198,0.2,1.2,,
Ugt307A1 (GeneID 33993),DRSC02138,-0.1,-0.3,,
GstZ2 (GeneID 41133),DRSC16479,-0.4,-0.4,,
Cda9 (GeneID 36934),DRSC06593,-0.1,-0.2,,
NaPi-T (GeneID 36651),DRSC07476,-0.4,-0.5,,
Nt5a (GeneID 38148),DRSC08561,-0.2,-0.3,,
CG42789 (GeneID 10178793),DRSC13793,-0.2,-0.4,,
ap (GeneID 35509),DRSC04917,-0.5,-1.2,,
sll (GeneID 42115),DRSC16271,-0.2,-0.5,,
CG3829 (GeneID 38000),DRSC04423,-0.2,-0.1,,
Erasp (GeneID 246448),DRSC07111,-0.1,-0.2,,
CG7519 (GeneID 40377),DRSC11834,-0.3,-0.1,,
bisc (GeneID 37443),DRSC04083,0.1,0.2,,
Fie (GeneID 38452),DRSC08158,0,0.1,,
Iyd (GeneID 39242),DRSC10614,-0.1,-0.2,,
Iyd (GeneID 39242),DRSC10615,-0.3,0.1,,
pico (GeneID 33003),DRSC19430,-0.3,-0.4,,
CG7110 (GeneID 34757),DRSC03011,-0.3,-0.4,,
CG7110 (GeneID 34757),DRSC03012,-0.3,-0.5,,
BomBc3 (GeneID 50055),DRSC15873,-0.2,0,,
CG2663 (GeneID 40649),DRSC12314,-0.4,-0.1,,
CG13692 (GeneID 33216),DRSC00361,-0.2,-0.4,,
CG4686 (GeneID 42361),DRSC15622,-1.1,-0.8,,
inc (GeneID 31110),DRSC17954,-0.1,-0.6,,
inc (GeneID 31110),DRSC18512,-0.3,-0.4,,
CG16719 (GeneID 39131),DRSC10222,-0.1,-0.4,,
CG11737 (GeneID 41009),DRSC14364,-0.2,-1.1,,
CG31259 (GeneID 41010),DRSC14366,-0.3,-0.1,,
ninaC (GeneID 34012),DRSC03579,-0.3,-0.4,,
eIF4E6 (GeneID 43422),DRSC14853,-0.2,-0.4,,
Myo95E (GeneID 2768680),DRSC15821,-0.2,-0.2,,
CG7878 (GeneID 40959),DRSC16330,-0.2,-0.6,,
CG17567 (retired record) (GeneID 50468),DRSC02627,-0.3,-0.5,,
Rad17 (GeneID 41779),DRSC16811,-0.5,-0.3,,
CG2765 (GeneID 37994),DRSC04315,-0.2,0.8,,
Mlc-c (GeneID 31474),DRSC18683,-0.3,-0.4,,
FoxP (GeneID 41182),DRSC15159,-0.2,-0.5,,
CG31933 (GeneID 326176),DRSC00457,0,0,,
Dbx (GeneID 38254),DRSC08270,1.8,-0.4,,
Dbx (GeneID 38254),DRSC08271,-0.3,-0.5,,
Dbx (GeneID 38254),DRSC08394,-0.2,-0.6,,
Dpck (GeneID 40846),DRSC12575,-0.1,-0.5,,
Mocs2A + Mocs2B,DRSC13697,0.6,-0.3,,
Mocs2A + Mocs2B,DRSC14219,-0.3,-0.5,,
CG3635 (GeneID 35447),DRSC03729,-0.1,-0.3,,
CG17816 (GeneID 40928),DRSC15277,0.2,-0.3,0,-0.1
CG10139 (GeneID 36626),DRSC05972,-0.2,0.5,,

Only “z-score, replicate 2” (9 entries from above):
ninaC (GeneID 34012) [DRSC03579]: -0.4
eIF4E6 (GeneID 43422) [DRSC14853]: -0.4
Myo95E (GeneID 2768680) [DRSC15821]: -0.2
CG7878 (GeneID 40959) [DRSC16330]: -0.6
CG17567 (retired record) (GeneID 50468) [DRSC02627]: -0.5
Rad17 (GeneID 41779) [DRSC16811]: -0.3
CG2765 (GeneID 37994) [DRSC04315]: 0.8
Mlc-c (GeneID 31474) [DRSC18683]: -0.4
FoxP (GeneID 41182) [DRSC15159]: -0.5
